Here are results for 1 molecule from publication PMC2909917, “Dynamic Subunit Exchange and the Regulation of Microtubule Assembly by the Stress Response Protein Human αB Crystallin” (PLoS ONE, 2010).

This assay has as its target bovine brain tubulin (bovine). Description: SEC; 128 µM αB crystallin and 16 µM tubulin in 20 mM tris-HCl, 160 µM MgCl2, 40 µM EGTA, pH 8.0; heated at 37°C for 30 minutes, cooled at 4°C for 10 minutes; Biosep SEC-S4000, eluted in 20 mM tris-Cl pH 8.0 at 4°C; peak fractions on SDS-PAGE (Coomassie); no GTP or glycerol (non-assembly conditions); both purified. On the technique in general: Size exclusion chromatography separates by hydrodynamic size, large species first.

These are yes or no findings as the source states them, for the method shown. Binding can be weak; no strength is given.

B1: human αB crystallin (natural protein, UniProt P02511 1-175, looked up)
chain: MDIAIHHPWIRRPFFPFHSPSRLFDQFFGEHLLESDLFPTSTSLSPFYLRPPSFLRAPSWFDTGLSEMRLEKDRFSVNLDVKHFSPEELKVKVLGDVIEVHGKHEERQDEHGFISREFHRKYRIPADVDPLTITSSLSSDGVLTVNGPRKQVSGPERTIPITREEKPAVTAAPKK
notes: human αB crystallin, expressed from a human αB crystallin pET16b plasmid; 20 kDa on SDS-PAGE; Polydisperse complex; pET16b can add an N-terminal His tag, but purification was by anion exchange and SEC, so the protein is probably untagged (surmise); also called small heat shock protein (sHSP); source: E. coli BL21 (DE3), purified (Q Sepharose Fast Flow, Superdex 200); copies: 24
As for B1, the binding entry is “binds”.
